B1: progesterone receptor membrane component 1, Myc-tagged wild type (PGRMC1-myc) [not stated] / two pore channel TPC1, GFP-tagged (TPC1-GFP) [human] (parent)
chain 1: MAAEDVVATGADPSDLESGGLLHEIFTSPLNLLLLGLCIFLLYKIVRGDQPAASGDSDDDEPPPLPRLKRRDFTPAELRRFDGVQDPRILMAINGKVFDVTKGRKFYGPEGPYGVFAGRDASRGLATFCLDKEALKDEYDDLSDLTAAQQETLSDWESQFTFKYHHVGKLLKEGEEPTVYSDEEEPKDESARKND
chain 2: not shown

Variants of: B1
Test: co-immunoprecipitation (TPC1-GFP IP, anti-myc Western blot densitometry)
Settings: with two pore channel TPC1, GFP-tagged (TPC1-GFP) [human]; U2OS cells co-expressing PGRMC1-myc constructs and TPC1-GFP; parent: 100; read off a plot

percent of parent	Variant
31 % ctrl	chain 1 Y113F

Source: paper PMC10685313
